Results deposited as PubChem BioAssay AID686943 (Drosophila RNAi Screening Center, 2013)
The screen tested about 23,000 reagents; below is an unselected part of those that have a named target and a result. 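Extra replicates exist only for a retested subset of genes; insulin dose and duration not given; both raised and lowered dpERK matter.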 A plus sign joins genes that one reagent is predicted to hit. Further read-outs or replicates are left out here. Reagent sequences are not shown. The record does not give: the amount of reagent, the time to read-out.

- Aim: 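Search across the genome for regulators of signalling from receptor tyrosine kinase to ERK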 (primary screen)
- Cell system: Drosophila S2R+ haemocyte-like cells expressing YFP-tagged ERK (Rolled)
- Reagents: long dsRNA against Drosophila genes
- Treatment: insulin stimulation versus unstimulated cells; dose and duration not given
- Detection: 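Per-plate z-scores of phospho-ERK immunostaining normalised to YFP-tagged ERK, measured with and without insulin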
- Direction: replicate 1, z-score of dpERK with insulin and replicate 2, z-score of dpERK with insulin: higher = more active ERK per ERK-YFP after insulin

replicate 1, z-score of dpERK with insulin | replicate 2, z-score of dpERK with insulin | gene | dsRNA
-0.08 | -0.4 | Obp19c | DRSC20528
0.11 | 0.81 | CG11964 | DRSC14447
0.19 | -0.07 | Art1 | DRSC16063
0.15 | -0.68 | CG13101 | DRSC02201
0.03 | -0.55 | CG6660 | DRSC16087
1.5 | -0.52 | CG6962 | DRSC16153
0.14 | 0.66 | cerv | DRSC19681
0.18 | -0.18 | CG4592 | DRSC02761
1.4 | 1.04 | CG32642 | DRSC18959
-0.55 | -0.77 | lncRNA:CR32657 | DRSC19403
0.28 | -1.58 | CG14840 | DRSC14964
0.56 | 0.04 | CG2310 | DRSC15438
-0.36 | 0.04 | Ir54a + sub | DRSC06459
-0.53 | 0.11 | Klp59D | DRSC04118
0.38 | 0.65 | Scgdelta | DRSC18544
-0.29 | -1.07 | TMEM216 + CG11760 | DRSC14375
-0.05 | -0.32 | Ipk1 | DRSC04235
0.3 | 0.59 | Ipk1 | DRSC04236
1.16 | 0.66 | Ipk1 | DRSC04237
0.17 | 0.13 | CG1983 | DRSC15410
-0.06 | 0.64 | tal-1A + tal-2A + tal-AA + 1 more | DRSC12992
-0.45 | -0.55 | Mical | DRSC14349
0.85 | 0.83 | Mical | DRSC14351
1.62 | 1.73 | Mical | DRSC15365
0.46 | 0.12 | Mical | DRSC15366

2 successive entries already listed:
replicate 1, z-score of dpERK with insulin | replicate 2, z-score of dpERK with insulin | gene | dsRNA
0.15 | -0.68 | CG13101 | DRSC02201
0.03 | -0.55 | CG6660 | DRSC16087
